Laboratory results: PubChem BioAssay AID445 (National Center for Advancing Translational Sciences (NCATS), 2006)
The list shows a part of the results. These are further read-outs of the screen, such as a control signal, another cell line or another target. No call is given for them. Most of these compounds were active or inconclusive in the main read-out, so they are no random draw. Words in brackets tell the shape of the fitted curve; partial curves, single points and poor fits give uncertain potencies.

Test: IkB Signaling
Conditions: ABC-DLBCL IkBa-CBG/CBR dual luciferase ratio (green luciferase fused to IkBa over red control in OCI-Ly3 lymphoma cells), 4 h; measured here: control luc red channel unless noted
Summary of the method: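 In this assay, an IκBα–CBG68 fusion accumulates when IKK-driven degradation is blocked; native CBR normalizes for cell number. OCI-Ly3 cells were treated 4 h with compound and doxycycline, then green and red light read after Chroma-Glo addition.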

Compound | AC50
O=C(c1cnc(N2CCOCC2)c2ccccc12)N1CCN(c2ccc(F)cc2)CC1 | 2.51 µM [rising, partial curve]
O=C(CN1CCN(c2ncc(C(F)(F)F)cc2Cl)CC1)Nc1ccc2c(c1)OCO2 | 25.1 µM [falling, partial curve]
O=C1c2ccccc2-c2onc3c(Br)cc(NC4CCCCC4)c1c23 | 39.8 µM [falling, single point]
Cc1cccc(N2C(=O)CSC23C(=O)N(CC(=O)NCCc2ccccc2)c2ccccc23)c1 (configuration not stated) | 20 µM [falling, single point]
Nc1nc(CN2CCN(c3ccc(F)cc3)CC2)nc(N2CCCc3ccccc32)n1 | 12.6 µM [falling, partial curve]
COc1cc2nc(NCc3ccccc3Cl)n3nc(-c4cccnc4)nc3c2cc1OC | 10 µM [falling, single point]
COc1ccc(CC(=O)N2CC(=O)Nc3ccc(Br)cc3C2c2ccc(F)cc2)cc1OC (configuration not stated) | 39.8 µM [falling, single point]
CC(NC(=O)C1CCN(c2nnc(-n3cccc3)s2)CC1)C12CC3CC(CC(C3)C1)C2 (configuration not stated) | 20 µM [falling, partial curve]
COc1ccc(Cn2c(C(=O)O)c(CNC3CCC(C)CC3)c3ccc(C)cc32)cc1 (configuration not stated) | 39.8 µM [falling, single point]
COc1cccc(CNC(=O)c2cc(-c3cccs3)nc3ccccc23)c1 | 7.94 µM [falling, partial curve]
Cn1nc(-c2ccccc2)c(-c2ccccc2)c(C(=O)Nc2ccc(S(N)(=O)=O)cc2)c1=O | 0.251 µM [rising, full curve, poor fit]
Oc1c(Cl)cc(Cl)c(Cl)c1Cl | 31.6 µM [falling, partial curve]
Cc1cccc(-n2c(SCC(=O)Nc3ccccc3Cl)nc3n[nH]c(C)c3c2=N)c1 | 39.8 µM [falling, single point]
COc1cccc(Nc2cc(-c3ccccc3)nc(C)n2)c1 | 31.6 µM [falling, single point]
CCN(CC)S(=O)(=O)c1ccc(C(=O)NCc2n[nH]c(=S)n2-c2ccccc2OC)cc1 | 0.2 µM [falling, full curve]
COc1ccc(C)c2sc(N(Cc3cccnc3)C(=O)COc3ccccc3)nc12 | 0.01 µM [rising, full curve, poor fit]
CC(C)C1C(C#N)=C(N)Oc2n[nH]c(-c3cccs3)c21 (configuration not stated) | 31.6 µM [falling, partial curve]
Cc1ccc2c(c1)N(C(=O)N1CCC(C(=O)NC3CCCCCC3)CC1)CCO2 | 0.0794 µM [falling, full curve]
CN(C)c1ccc(-c2nc(-c3ccncc3)no2)cc1[N+](=O)[O-] | 10 µM [falling, partial curve]
O=C1c2ccccc2C(=O)N1CCCSc1nc2ccccc2o1 | 25.1 µM [falling, single point]
CCc1nc2oc3cc(OC)ccc3c(=O)c2c(=O)n1-c1ccccc1 | 0.0316 µM [falling, full curve]

Compound | AC50
CCC1CCCCN1CCCNC(=O)c1cc2c(Cl)nc3ccc(C)cc3c2s1 (configuration not stated) | 39.8 µM [rising, single point]
Cc1c2cnn(CC(=O)NCCc3ccccc3)c(=O)c2c(C)n1Cc1ccccc1Cl | 25.1 µM [falling, partial curve]
CCC1CCCCN1CCCNC(=O)c1ccc2c(c1)N(Cc1cccc(C)c1)C(=O)c1ccccc1S2(=O)=O (configuration not stated) | 31.6 µM [falling, single point]
Cc1[nH]n2c(=O)c(C#N)c(-c3ccccc3)nc2c1-c1ccccc1 | 0.398 µM [falling, full curve]
COc1cc(C(=O)NCC(c2ccc(N(C)C)cc2)N2CCCC2)cc(OC)c1OC (configuration not stated) | 25.1 µM [falling, partial curve, poor fit]
CCOc1ccc(NC(=O)CSc2nc3nc(C)c(Cc4ccccc4)c(C)n3n2)cc1 | 39.8 µM [falling, partial curve]
CCc1ccc(NC(=O)CSc2nc(=O)n(Cc3cccnc3)c3c2CCC3)cc1 | 25.1 µM [falling, single point]
CCc1ccccc1NC(=O)CSc1nc2c(oc3ccccc32)c(=O)n1-c1ccccc1 | 15.8 µM [falling, partial curve]
CCN(CC)CCNC(=O)CCCCn1c(=S)[nH]c2c([nH]c3ccc(OC)cc32)c1=O | 12.6 µM [falling, partial curve]
CCn1c2ccccc2c2nc3cc(S(=O)(=O)N4CCOCC4)ccc3nc21 | 31.6 µM [rising, single point] [measured here: IkB-luc green channel]
O=C(Nc1ncccc1O)c1cccc(S(=O)(=O)N2CCc3ccccc32)c1 | 31.6 µM [rising, single point] [measured here: IkB-luc green channel]
CSc1ccc(CCNC(=O)c2sc3ncccc3c2-n2cccc2)cc1 | 31.6 µM [falling, single point]
O=C(NCC(c1cccnc1)N1CCOCC1)C(=O)Nc1cccc(Cl)c1 (configuration not stated) | 25.1 µM [falling, single point]
COC(=O)c1ccc(NC(=O)N2CCc3c([nH]c4ccccc34)C2c2ccc(C)cc2)cc1 (configuration not stated) | 3.98 µM [falling, partial curve]
CN(C)S(=O)(=O)N(CC(=O)NCCSCc1ccc(Cl)cc1Cl)c1ccccc1 | 12.6 µM [falling, partial curve]
Cc1cc(C(=O)Nc2cccc(C(=O)O)c2)oc1C | 1.58 µM [falling, full curve]
COc1ccc(NC(=O)CN2C(=O)C(c3ccccc3)=NC23CCC(C)CC3)cc1Cl (configuration not stated) | 20 µM [falling, single point]
CC(C)c1ccc(NC(=O)c2cc(S(=O)(=O)NCCc3ccccc3)ccc2F)cc1 | 25.1 µM [falling, partial curve]
O=C1Cc2cc(S(=O)(=O)Nc3cccc(C(F)(F)F)c3)cc3c2N1CCC3 | 31.6 µM [falling, partial curve]
COc1ccc(C(C)C)cc1S(=O)(=O)NCCc1c(C)[nH]c2c(Cl)cccc12 | 20 µM [falling, single point]
C[C@H](NC(=O)OC(C)(C)C)c1nnc(SCc2ccc(Cl)cc2Cl)o1 | 20 µM [falling, partial curve, poor fit]

Part of the list above in order of molecular weight, high to low.
Compound | AC50
O=C(CN1CCN(c2ncc(C(F)(F)F)cc2Cl)CC1)Nc1ccc2c(c1)OCO2 | 25.1 µM [falling, partial curve]
Cc1ccc2c(c1)N(C(=O)N1CCC(C(=O)NC3CCCCCC3)CC1)CCO2 | 0.0794 µM [falling, full curve]
O=C1c2ccccc2C(=O)N1CCCSc1nc2ccccc2o1 | 25.1 µM [falling, single point]

Next part.

Compound | AC50
CCc1ccccc1NC(=O)Cn1nc(C)c2nn(-c3ccc(Cl)cc3)c(C)c2c1=O | 1.26 µM [falling, full curve, poor fit]
Cc1nc(N2CCN(Cc3nc4ccccc4[nH]3)CC2)c2oc3ccccc3c2n1 | 12.6 µM [falling, partial curve]
CCc1ccc(S(=O)(=O)c2cn(C)c3ccc(C)cc3c2=O)cc1 | 20 µM [falling, single point]
Cc1ccc(-n2nc(C(=O)N(C)c3ccccc3Cl)c3c4ccccc4n(C)c3c2=O)cc1 | 3.16 µM [falling, full curve]
COc1ccc(OC)c(NC(=O)CSc2ncccc2C(=O)O)c1 | 31.6 µM [falling, single point]
CCOC(=O)c1[nH]c(C)c(CCC(=O)N2CCN(c3ccc(Cl)cc3)CC2)c1C | 31.6 µM [falling, single point]
O=C(O)c1ccc(Nc2ncnc3scc(-c4ccccc4)c23)cc1 | 10 µM [falling, partial curve]
CCc1ccc2nc(N(Cc3cccnc3)C(=O)Cc3ccccc3)sc2c1 | 31.6 µM [falling, single point]
COc1cc(OC)cc(C(=O)Nc2cccc(C(C)=O)c2)c1 | 10 µM [falling, partial curve]
CCC(C(=O)NCc1ccccc1Cl)n1c(=O)c2cccn2c2ccccc21 (configuration not stated) | 15.8 µM [falling, partial curve]
Cc1ccc2c(c1)N(C(=O)c1ccc(F)cc1)C(C)(C)CC2(C)c1ccccc1 (configuration not stated) | 10 µM [falling, partial curve]
CCc1ccccc1N1C(=O)N(Cc2cc(=O)n3ccccc3n2)c2ccccc2S1(=O)=O | 12.6 µM [falling, single point]
O=C(NCc1ccccc1)c1c2c(nc3ccccc13)C(=O)N(C1CCCCC1)C2 | 39.8 µM [falling, single point]
CCN(CC)c1ccc2nc3c(=O)n(C)c(=O)n(C)c3nc2c1 | 20 µM [rising, partial curve]
CCn1nc(C)c(CCN(C)C(=O)Nc2cc(Cl)c(OC)cc2OC)c1C | 3.98 µM [rising, single point]
CC(C)c1nn2c(=O)cc(COC(=O)c3cccc(NC(=O)CCc4ccccc4)c3)nc2s1 | 3.16 µM [falling, partial curve]
O=C(CSc1oc(-c2ccc(F)cc2)nc1S(=O)(=O)c1ccccc1)c1ccc(Cl)cc1 | 5.01 µM [falling, full curve, poor fit]
CCN(Cc1ccccc1)C(=O)Cn1c(=O)cc(C)c2c(C)nn(-c3cccc(F)c3)c21 | 25.1 µM [falling, single point]
CC(C)c1ccc(NC(=O)C2CCC(CNS(=O)(=O)c3ccc4c(c3)CCCC(=O)N4)CC2)cc1 (configuration not stated) | 15.8 µM [falling, partial curve]
Cc1ccc(N(CC(=O)Nc2ccc(F)c(Cl)c2)S(=O)(=O)c2c(C)noc2C)cc1 | 10 µM [falling, partial curve]
